The whole screen tested about 53,000 sequences, of which about 3,700 (7%) were called active.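 Rule for the calls: active = gene knockdowns whose robust z-score for IL-1 alpha signal is at least 2 or at most -2, so actives lie on both sides; inactive = the rest.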 The list shows a part of the results.

This experiment in a line: Components of the Cytosolic LPS Sensing Pathway: Gene Identification via Genome-wide siRNA Screen.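 Note: robust z of the log signal after scaling to non-targeting control siRNA wells of the plate.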 The note with it: RAW264.7 macrophages, IL-1a HTRF, actives lie on both sides, screened at 100 nM (by protocol), cells primed 5 h with Pam3CSK4 first. Summed up: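 Cells (RAW264.7, 1×10^4 per well) were transfected with siRNA at 100 nM and cultured 48h at 37 degrees C. Pam3CSK4 was added for 5 hours; LipidA transfection followed for 24 hour. IL-1a was then measured by HTRF.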
Background: In TR-FRET formats the signal depends on donor and acceptor labels being close together.
In the case of GGCUCUAAAAACAAAUGACTT against Asb4, the z-score is inactive: -0.659.
In the case of GAAAAUCUUGACACUCCUGTT against Ifna9 it was inactive: -0.434; in that of CCAAACUUUUGUGGAACAGTT against Galnt9, inactive: 0.0294; in that of GGACCUUAUGGCUUUGUAGTT against Ier5, inactive: -1.3.
The result for CCGCAUCUAUGCAGGGCAATT against Coq7 reads inactive: 1.46.
In the case of GCCACAACUGUCAACAUAGTT against Exosc8 it was inactive: -0.905; in that of GCACAAGAAAUCGAAUAUGTT against Acr, inactive: -0.00119.
As to GGCUCAGUCAGUGACUGUATT against Erf, the z-score is inactive: 0.965.
The result for GCUGACAACUGAUGGGAAGTT against Larp7 reads inactive: 1.05; that for GGUAGGUUAAAGAGACUUUTT against Msx1, inactive: -0.106; that for GCUAUUCGUUUCUUAUAACTT against Slc19a3, inactive: 0.83.
The result for GCUAGACUUCUUUGUGCGATT against Abhd8 reads inactive: 0.656.
The result for GGUACCCAGCGAUCAUGCATT against Olfr1370 reads inactive: -0.109; that for CCCAAAUAACAGAGAAAUGTT against St8sia6, inactive: 0.818.
In the case of GGUAUGAGCAACCUAAGUGTT against Smoc2, the z-score was inactive: -1.3.
The result for GCUGGAAAAAAAGUUGGAUTT against Diaph1 reads inactive: -1.29; that for GGAAAGUCAAUCAGAAAAUTT against Dars, inactive: 0.668; that for GCUGUCUGAUUCUGAGGUGTT against Slc6a1, active: 2.
In the case of GCAUCCUAAAGGAGACGCATT against Ccdc102a it was inactive: 0.848; in that of “GGCAUGGAUUGGUGAGAUUTT against 9330175E14Rik”, inactive: -0.576; in that of GGUUUUUUAACAGAGAUCCTT against Hipk1, inactive: -0.684.
GGUAGUGGCUAAUGCUGUGTT against Tepsin: the z-score was inactive: -0.0468.
In the case of GGAGGAUUCCCUCUAUAUUTT against Slc33a1 it was inactive: 0.118.
In the case of GGGUUAUGGCUGGAAUCUGTT against Slc12a9 it was inactive: -1.52; in that of GGACUGCACCUUUUGGCAUTT against Tlr11, inactive: -0.329.
The result for GGUGACUGUCCUGAACUAUTT against Prr5l reads inactive: 1.7; that for GGAAGUAUUUCACAUGUGATT against Dctn1, inactive: -0.299; that for GCCCUUUGGCAAUGUGAGATT against Opn1mw, inactive: -0.378.
CGAACCUCCAGUUAUUAGUTT against Chfr: the z-score was inactive: 0.8.
Turning to GGAAAAGAAAGGUCCUGAGTT against Klc3, the z-score is inactive: -0.608.
The result for CGCAGGACAUUUGGUUUUGTT against Ssxb2 reads active: 2.88; that for CCGUGGUAUCAAUGAUUGGTT against Hhatl, inactive: 1.08.
Consider CGACAACGAUAAGUUUGAATT against Fgg, for which the z-score is inactive: -1.62.
The result for GGAAGAAGCAGCAAGAAGATT against Ttc39b reads active: -2.16; that for GGUGAAGGUACGAGUAAGATT against Prkra, inactive: -0.809; that for GGAGACAGAAUGCACAUUUTT against Tff3, inactive: -0.888.
In the case of GGCAUGUAAUGAAUUCACATT against Pbx3 it was active: -2.14; in that of GGCCACUCAAUAUCAACGATT against Apaf1, inactive: 0.168.
On to GGAACUUAAGAACUUUCUATT against Calb1, for which the z-score is active: 2.3.
In the case of GGGCUUCGAUGGAACUCCUTT against Col4a3 it was inactive: -0.368; in that of GCCACUUCCGCAUAAUUGGTT against Setbp1, inactive: -0.935.
In the case of CCCAUCCUGUAUCCACUAATT against Mlf2 it was inactive: -1.44.
The result for GGUCCAUGCUCUCAUGAGUTT against Batf2 reads inactive: -1.34; that for CCACAAUGUUACCCAGAAUTT against Adgrg2, inactive: 0.441.
Turning to GGGAAUGAACCUAGAAGAGTT against Tymp, the z-score is inactive: -1.2.
For the sequence GGAUGCUGUUCGAGCUCAUTT against Cc2d1b, the z-score is inactive: -0.537.
The result for GCAACGGACUUCCUCUCACTT against Tbck reads inactive: 0.696.
In the case of CCACAGUCUAUUCAAACUUTT against Ncapd3 it was inactive: -1.12; in that of GGAACCUAUUGAAUCUGGGTT against Plpp7, inactive: 1.46; in that of GGUGUGUUAAGGUUUUUAATT against Marchf1, active: 3.68.
In the case of GGAUGCUUACGGGAGACGATT against Tmem9 it was inactive: -0.595; in that of GGCUUGCCUUUUUUGCUAUTT against Olfr1404, inactive: 0.781; in that of GGGCAAUGGAAGAAUUCCUTT against BC030500, inactive: -1.69.
In the case of GGUUAUUGAUGUGACGAUGTT against Rem2, the z-score is inactive: 1.36.
The result for GAGUGCUAAGUAGGAAAGGTT against Olfr33 reads inactive: -0.424.
Consider GAAGUCCUGGGACUUUAUGTT against Nudt14, for which the z-score is inactive: 0.208.
The result for GGCUAGAAAUCAUCAAUGATT against Ntrk2 reads inactive: 0.584.
In the case of AUACCACAAAGGUCAGCACTT against Defb22 it was inactive: -1.31; in that of GGUCUUCUCGGGUCGAAAGTT against Cpt1a, inactive: 0.216; in that of GCUUAAACAGCUUUACUUATT against Actr2, inactive: 1.07.
The result for GGCUGUGAGCCGUAAGACUTT against Mrpl16 reads inactive: 0.791; that for GGUGGAGAACUGAGAAUCUTT against Obp1a, inactive: -0.795; that for CCUUUGUAACUGGAAUUCUTT against Olfr197, inactive: 1.74.
With “CCGGAGCUAACACCUACAGTT against 1700049L16Rik”, the z-score was inactive: -0.257.
The result for GCAACGUGAAACAUAUUCUTT against Cpb1 reads inactive: 1.69; that for GGUACAAAUGAAGCUUUGATT against Tmem72, inactive: 0.878.
The result for GCCGGACAGGGAAACUUAATT against Spem2 reads inactive: 1.33; that for UCUCAUGGAGUCUGCUGCUTT against Serpina1d, inactive: -1.91.
In the case of GGAUUUAGGCCUUAUCAUCTT against Atf3 it was active: -2.12.
Consider CGGAUUCCUGCUCUUAAGUTT against Tdrd3, for which the z-score is inactive: -1.17.
In the case of GGAGAUAUAAUCAGUGUGGTT against Ilkap it was inactive: -0.78; in that of GGAAGAUAAUAUCCUUUGGTT against Olfr734, inactive: -1.02.
The result for GGAGUUCAUUGAUCAUUCUTT against Ndufb5 reads active: 2.21.
In the case of GCUUGACCUUUUUACUCCUTT against Siglece it was inactive: 0.262; in that of CCUAUAAGUGAACUGUGAUTT against Aig1, inactive: -0.71; in that of GGUCAUUGAGCUGAUGGACTT against Elovl1, active: 4.34.
As to GUGCUAUACUCGGUCGUCATT against Olfr53, the z-score was inactive: 0.888.
With GGUAAUCACACUCAGUGUCTT against Cfap410, the z-score was inactive: -0.821.
In the case of CCAAACGGUUCAAAAAGAUTT against Efcab8 it was inactive: -0.21.
In the case of CCAUUAGCAAUGUGCUUCUTT against Unc13a it was inactive: 0.268; in that of GCCUCUCAUUAGCAGUCAATT against Fbxl15, inactive: -1.92; in that of GCGUGAGUAUGAGAAAUGUTT against Zfp760, inactive: -0.785.
The result for GCAUGUAGUUCAUCAGUACTT against Tubgcp5 reads inactive: 0.874.
Turning to “GGCUGAAGACUACUUCCUATT against 4932416K20Rik”, the z-score was inactive: -1.02.
In the case of GGACCUCUUGUAUUUAUAATT against Lancl3 it was inactive: -1.09.
In the case of CCUCAGCUCCGUAGAUCUUTT against Arhgap29 it was inactive: -0.896.
In the case of GGGCUAAUUGUGAACAUUUTT against Slc7a1 it was active: 3.35; in that of GGAGACUGUAUGUGGCAAGTT against Camp, inactive: -1.39.
Regarding “GGUUUGCUUUUAUGAGAGUTT against 2610044O15Rik8”, the z-score was inactive: 0.477.
In the case of GGAUUUCAAAGGUGAUGAUTT against Xlr5c it was inactive: -0.59; in that of GCUAUUUCUCACAGAAUUATT against Dmd, inactive: 0.9.
In the case of CCUCCGUUUGAUGACUCAATT against Tcte3 it was inactive: 0.00656.
The result for GGAGUCGGUUAGAAGCUCUTT against Trim15 reads inactive: -0.503; that for GAUAAUUUGCACAUCCUCUTT against Nrn1l, inactive: -0.999; that for GGUAAACAGAAUCUGGUGATT against Dhfr, inactive: -0.324.
With GGAGAGAUAAUCCAUAAUATT against Arl14ep, the z-score is inactive: 1.07.
Consider GCAGUUUCUAAUGAAGGUUTT against Ppp2r5a, for which the z-score is inactive: 0.416.
Consider CCAACCCUAUUAGUGGAAGTT against Zfp738, for which the z-score was inactive: 0.383.
In the case of GGAUCUUUCGUGUGGAAAATT against Atf7ip it was inactive: 0.87; in that of GCCAUAGCCAAUGAAUAUGTT against Fam98a, inactive: -1.1.
The result for “GGUUCAAGUGGUAAGCAAUTT against 1700016D06Rik” reads inactive: 0.222; that for UAAUACAUUUCGAGCUGCATT against Rbfox3, inactive: -0.551; that for GGUGUAGACUCCAACAUGUTT against Aarsd1, inactive: 1.69.
The result for GGCCACACUUUGAAGUGACTT against Setd7 reads inactive: -1.39; that for GGUCAUCUUAUUGAACUUCTT against S1pr1, inactive: -0.0857.
On to CCCUGUUCGUAAUCAUUAUTT against Olfr467, for which the z-score is inactive: 0.158.
The result for GCAAGCCACAACAGUUAAATT against Rpl9 reads inactive: 1.23.

The values are drawn from PubChem BioAssay AID1508600 (Functional Genomics Laboratory (NCATS/FGL), 2020).
